Assay results from the supplement of paper PMC10849652.
The list shows a part of the results. Residues, ends and D or L forms follow the SMILES beside them. *: point of attachment. Cbz = O=C(OCc1ccccc1)*

Amino acid sequences for entries named in this document (tags omitted). A change or cut given only in a name is not applied to a line headed by its entry.
UniProt Q9BU89: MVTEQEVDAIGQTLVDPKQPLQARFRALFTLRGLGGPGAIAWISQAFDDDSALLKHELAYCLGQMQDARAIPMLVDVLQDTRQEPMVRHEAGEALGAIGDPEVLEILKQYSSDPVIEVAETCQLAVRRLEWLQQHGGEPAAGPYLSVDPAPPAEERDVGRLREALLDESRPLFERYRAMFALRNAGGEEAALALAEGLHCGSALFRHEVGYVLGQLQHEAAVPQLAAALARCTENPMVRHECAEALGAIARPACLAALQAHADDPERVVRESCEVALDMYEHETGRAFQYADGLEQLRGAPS
UniProt Q9H1X3: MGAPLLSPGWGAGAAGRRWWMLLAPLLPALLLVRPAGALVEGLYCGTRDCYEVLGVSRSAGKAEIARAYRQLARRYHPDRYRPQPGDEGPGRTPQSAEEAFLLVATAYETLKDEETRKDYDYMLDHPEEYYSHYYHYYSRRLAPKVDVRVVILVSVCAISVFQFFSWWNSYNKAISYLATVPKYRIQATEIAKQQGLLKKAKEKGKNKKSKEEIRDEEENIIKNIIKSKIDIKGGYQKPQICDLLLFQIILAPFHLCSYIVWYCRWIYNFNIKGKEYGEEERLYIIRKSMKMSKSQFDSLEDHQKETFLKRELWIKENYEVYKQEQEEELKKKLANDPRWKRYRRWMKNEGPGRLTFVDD
UniProt Q96LL9: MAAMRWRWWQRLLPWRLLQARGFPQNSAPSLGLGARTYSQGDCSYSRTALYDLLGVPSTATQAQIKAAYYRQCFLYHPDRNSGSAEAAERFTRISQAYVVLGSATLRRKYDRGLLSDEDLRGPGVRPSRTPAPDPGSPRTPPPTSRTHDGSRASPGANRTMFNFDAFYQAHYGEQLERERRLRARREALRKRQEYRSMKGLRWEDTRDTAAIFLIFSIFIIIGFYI
UniProt Q99704: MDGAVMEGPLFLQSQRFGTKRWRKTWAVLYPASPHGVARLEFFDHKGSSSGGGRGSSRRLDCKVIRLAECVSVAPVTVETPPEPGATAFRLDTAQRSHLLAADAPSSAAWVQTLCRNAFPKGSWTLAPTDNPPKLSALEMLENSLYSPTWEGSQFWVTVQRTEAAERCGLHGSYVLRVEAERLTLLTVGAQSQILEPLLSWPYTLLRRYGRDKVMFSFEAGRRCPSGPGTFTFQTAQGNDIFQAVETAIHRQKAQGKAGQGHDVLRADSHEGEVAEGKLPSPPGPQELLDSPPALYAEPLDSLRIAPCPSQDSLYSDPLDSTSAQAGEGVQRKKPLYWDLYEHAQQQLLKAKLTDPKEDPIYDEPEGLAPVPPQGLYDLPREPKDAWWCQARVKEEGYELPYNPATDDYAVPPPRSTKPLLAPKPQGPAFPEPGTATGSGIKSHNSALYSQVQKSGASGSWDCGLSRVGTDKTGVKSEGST
UniProt Q86YN1: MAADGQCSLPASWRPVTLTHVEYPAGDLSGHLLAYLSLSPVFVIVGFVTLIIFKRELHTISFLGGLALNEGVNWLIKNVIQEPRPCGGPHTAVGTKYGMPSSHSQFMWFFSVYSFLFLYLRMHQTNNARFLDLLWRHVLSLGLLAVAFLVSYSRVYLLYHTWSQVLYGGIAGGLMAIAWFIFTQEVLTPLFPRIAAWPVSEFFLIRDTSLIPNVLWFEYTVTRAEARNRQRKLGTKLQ
UniProt O00716: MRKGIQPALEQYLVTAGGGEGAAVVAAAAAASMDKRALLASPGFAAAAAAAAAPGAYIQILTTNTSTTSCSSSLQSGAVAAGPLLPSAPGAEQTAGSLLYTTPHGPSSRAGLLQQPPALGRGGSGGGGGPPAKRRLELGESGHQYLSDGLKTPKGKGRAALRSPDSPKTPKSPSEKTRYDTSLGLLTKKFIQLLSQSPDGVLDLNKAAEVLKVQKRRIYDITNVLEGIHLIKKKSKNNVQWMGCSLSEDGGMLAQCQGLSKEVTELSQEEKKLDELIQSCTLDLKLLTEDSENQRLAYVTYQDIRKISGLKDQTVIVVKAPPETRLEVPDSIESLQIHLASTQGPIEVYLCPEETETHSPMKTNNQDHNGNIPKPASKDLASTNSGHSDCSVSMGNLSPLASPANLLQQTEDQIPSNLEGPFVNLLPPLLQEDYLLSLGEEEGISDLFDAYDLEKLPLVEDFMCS
UniProt Q99956: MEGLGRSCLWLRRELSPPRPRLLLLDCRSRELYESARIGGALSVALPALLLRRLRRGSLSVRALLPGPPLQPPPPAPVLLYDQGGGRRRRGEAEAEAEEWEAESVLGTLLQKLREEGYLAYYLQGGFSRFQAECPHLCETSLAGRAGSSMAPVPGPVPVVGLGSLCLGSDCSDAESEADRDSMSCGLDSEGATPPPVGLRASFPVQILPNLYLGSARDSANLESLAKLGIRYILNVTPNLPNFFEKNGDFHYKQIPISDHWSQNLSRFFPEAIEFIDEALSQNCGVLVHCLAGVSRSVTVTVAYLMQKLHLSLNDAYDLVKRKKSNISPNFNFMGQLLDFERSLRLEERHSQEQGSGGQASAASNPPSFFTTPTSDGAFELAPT
UniProt O00429, whole entry, looked up: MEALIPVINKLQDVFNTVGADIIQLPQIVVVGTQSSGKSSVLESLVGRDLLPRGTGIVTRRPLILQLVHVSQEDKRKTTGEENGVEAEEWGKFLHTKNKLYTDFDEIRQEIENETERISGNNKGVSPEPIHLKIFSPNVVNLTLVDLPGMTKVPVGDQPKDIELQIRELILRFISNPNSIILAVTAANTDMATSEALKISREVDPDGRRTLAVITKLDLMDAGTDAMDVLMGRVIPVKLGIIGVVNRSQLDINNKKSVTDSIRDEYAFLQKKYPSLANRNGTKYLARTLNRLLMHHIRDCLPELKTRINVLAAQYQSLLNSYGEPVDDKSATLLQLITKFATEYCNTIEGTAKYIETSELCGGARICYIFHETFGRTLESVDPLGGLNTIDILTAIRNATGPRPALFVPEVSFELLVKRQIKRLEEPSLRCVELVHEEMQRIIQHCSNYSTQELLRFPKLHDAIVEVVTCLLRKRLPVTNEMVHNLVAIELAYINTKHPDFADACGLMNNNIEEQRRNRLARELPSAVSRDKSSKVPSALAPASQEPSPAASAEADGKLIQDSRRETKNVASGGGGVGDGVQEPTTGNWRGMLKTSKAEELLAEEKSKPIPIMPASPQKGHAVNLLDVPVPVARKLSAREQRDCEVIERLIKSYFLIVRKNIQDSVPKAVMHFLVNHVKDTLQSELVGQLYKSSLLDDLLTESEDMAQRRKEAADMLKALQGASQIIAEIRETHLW
UniProt Q96EV8: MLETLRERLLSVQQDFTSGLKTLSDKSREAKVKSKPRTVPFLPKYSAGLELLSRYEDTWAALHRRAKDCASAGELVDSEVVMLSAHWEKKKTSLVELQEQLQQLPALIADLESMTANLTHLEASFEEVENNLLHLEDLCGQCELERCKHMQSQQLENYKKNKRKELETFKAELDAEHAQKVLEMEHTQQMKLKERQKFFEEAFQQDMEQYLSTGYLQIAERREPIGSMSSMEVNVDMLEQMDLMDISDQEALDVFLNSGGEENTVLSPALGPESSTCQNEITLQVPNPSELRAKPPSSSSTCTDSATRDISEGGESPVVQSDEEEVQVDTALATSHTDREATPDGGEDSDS
UniProt Q96KC8: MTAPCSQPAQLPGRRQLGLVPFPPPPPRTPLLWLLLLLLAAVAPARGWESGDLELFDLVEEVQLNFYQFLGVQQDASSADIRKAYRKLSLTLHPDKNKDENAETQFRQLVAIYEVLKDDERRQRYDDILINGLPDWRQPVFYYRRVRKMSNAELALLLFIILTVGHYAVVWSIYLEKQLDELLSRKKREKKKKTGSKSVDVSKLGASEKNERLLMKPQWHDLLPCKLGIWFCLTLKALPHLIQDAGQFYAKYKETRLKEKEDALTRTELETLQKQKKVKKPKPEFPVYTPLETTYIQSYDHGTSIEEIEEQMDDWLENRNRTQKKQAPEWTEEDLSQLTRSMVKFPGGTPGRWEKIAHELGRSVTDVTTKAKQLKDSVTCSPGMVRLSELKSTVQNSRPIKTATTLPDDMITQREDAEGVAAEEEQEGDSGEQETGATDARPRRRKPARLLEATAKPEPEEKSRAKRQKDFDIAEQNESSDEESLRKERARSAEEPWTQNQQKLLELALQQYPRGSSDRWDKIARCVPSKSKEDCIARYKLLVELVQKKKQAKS
UniProt Q92608: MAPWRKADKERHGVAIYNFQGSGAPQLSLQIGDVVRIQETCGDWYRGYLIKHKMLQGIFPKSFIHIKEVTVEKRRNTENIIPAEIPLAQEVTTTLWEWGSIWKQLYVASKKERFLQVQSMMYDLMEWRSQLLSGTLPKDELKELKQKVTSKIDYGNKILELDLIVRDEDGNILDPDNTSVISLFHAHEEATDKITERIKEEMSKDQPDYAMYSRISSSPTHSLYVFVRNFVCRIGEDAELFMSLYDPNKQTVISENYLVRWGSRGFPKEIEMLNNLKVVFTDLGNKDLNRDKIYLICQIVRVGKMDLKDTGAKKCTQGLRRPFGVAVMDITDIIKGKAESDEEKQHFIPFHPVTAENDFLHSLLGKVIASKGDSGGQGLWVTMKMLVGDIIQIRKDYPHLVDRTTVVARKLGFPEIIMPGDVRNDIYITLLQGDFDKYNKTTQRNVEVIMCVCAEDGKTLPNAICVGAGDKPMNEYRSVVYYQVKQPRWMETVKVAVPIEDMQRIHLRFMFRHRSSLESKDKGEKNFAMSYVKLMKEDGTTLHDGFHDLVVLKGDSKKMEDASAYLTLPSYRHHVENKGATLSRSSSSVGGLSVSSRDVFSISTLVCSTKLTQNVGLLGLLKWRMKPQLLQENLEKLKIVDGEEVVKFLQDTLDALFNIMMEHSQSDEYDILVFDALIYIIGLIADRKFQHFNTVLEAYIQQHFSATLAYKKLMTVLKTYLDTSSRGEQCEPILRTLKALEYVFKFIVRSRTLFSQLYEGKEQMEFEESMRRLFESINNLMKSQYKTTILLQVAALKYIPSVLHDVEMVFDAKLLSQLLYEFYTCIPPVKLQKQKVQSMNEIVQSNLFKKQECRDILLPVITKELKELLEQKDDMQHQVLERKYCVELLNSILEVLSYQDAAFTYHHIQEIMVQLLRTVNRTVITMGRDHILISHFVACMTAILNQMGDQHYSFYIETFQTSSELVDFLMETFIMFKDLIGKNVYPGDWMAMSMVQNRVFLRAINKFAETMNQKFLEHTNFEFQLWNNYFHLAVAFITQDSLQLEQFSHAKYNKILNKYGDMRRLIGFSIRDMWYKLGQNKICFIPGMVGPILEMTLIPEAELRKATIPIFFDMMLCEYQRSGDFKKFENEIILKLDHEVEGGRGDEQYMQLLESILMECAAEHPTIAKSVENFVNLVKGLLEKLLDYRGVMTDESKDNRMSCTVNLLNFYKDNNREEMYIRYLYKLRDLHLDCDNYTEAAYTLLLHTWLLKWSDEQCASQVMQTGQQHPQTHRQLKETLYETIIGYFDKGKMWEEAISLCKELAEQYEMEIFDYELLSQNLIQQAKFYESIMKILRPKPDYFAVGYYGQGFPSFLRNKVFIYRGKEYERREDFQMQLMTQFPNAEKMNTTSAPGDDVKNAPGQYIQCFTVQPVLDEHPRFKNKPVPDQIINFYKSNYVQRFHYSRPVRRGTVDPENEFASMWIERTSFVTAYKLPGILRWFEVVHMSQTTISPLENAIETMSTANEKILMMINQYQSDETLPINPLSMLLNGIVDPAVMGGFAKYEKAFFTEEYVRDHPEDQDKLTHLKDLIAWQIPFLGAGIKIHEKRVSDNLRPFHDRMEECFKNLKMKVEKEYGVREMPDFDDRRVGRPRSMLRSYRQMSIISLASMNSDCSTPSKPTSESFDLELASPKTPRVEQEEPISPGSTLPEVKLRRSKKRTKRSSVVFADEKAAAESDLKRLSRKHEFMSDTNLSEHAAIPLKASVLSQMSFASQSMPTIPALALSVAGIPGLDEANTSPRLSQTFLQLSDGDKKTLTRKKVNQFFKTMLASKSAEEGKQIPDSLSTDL
UniProt O95147: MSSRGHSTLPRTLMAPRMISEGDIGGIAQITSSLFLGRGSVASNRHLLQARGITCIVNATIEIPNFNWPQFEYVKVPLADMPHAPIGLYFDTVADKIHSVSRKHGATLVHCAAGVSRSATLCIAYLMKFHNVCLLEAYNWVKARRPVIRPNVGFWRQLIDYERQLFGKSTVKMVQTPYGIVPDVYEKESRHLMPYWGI

Assays:
Experiment in all cases: log2 fold change, soluble protein after heating vs DMSO (PISA); higher = thermal stabilisation; K562 cells, 10 uM, 30 min; active = over 0.2 and 3.5 SD of the protein, either way, in both replicates (recomputed)
IRAK-1-4 Inhibitor I = compound: C1COCCN1CCN2C3=CC=CC=C3N=C2NC(=O)C4=CC(=CC=C4)[N+](=O)[O-] [IRAK-1-4 Inhibitor I]
Outline: (§1)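 Soluble protein was quantified by TMTpro 16plex LC-MS/MS after channel sums were equalised. It was obtained as the supernatant after 21,000xg for 90 min from pooled aliquots of K562 cells (2×10^6 cells/mL, 10 μM compound, 30 min) heated for 3 min across 48°C-58°C and extracted in PBS with 0.5% NP-40 at 4°C. Thermal stability values are relative to control samples and come from duplicates. They are given as log2 fold changes.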

ibrutinib = compound: C=CC(=O)N1CCC[C@@H](n2nc(-c3ccc(Oc4ccccc4)cc3)c3c(N)ncnc32)C1 [ibrutinib]
Outline: as §1

[1] = compound: CC(=O)c1cnc2ccc(-c3cc(Cl)c(O)c(Cl)c3)nc2c1N[C@H]1CC[C@H](CN(C)C)CC1
Outline: as §1

ralimetinib = compound: CC(C)(C)Cn1c(N)nc2ccc(-c3[nH]c(C(C)(C)C)nc3-c3ccc(F)cc3)nc21 [ralimetinib]
Outline: as §1

[2] = compound: CC(C)(O)CC(=O)NCCn1ccc2ncnc(Nc3ccc(Oc4cccc(C(F)(F)F)c4)c(Cl)c3)c21
Outline: as §1

[3] = compound: CC(C)C1=C2N=C(C=C(N2N=C1)NCC3=CC=CC=C3)NCCCCCCN
Outline: as §1

[4] = compound: CC(C)C[C@@H](C=O)NC(=O)[C@H](CC(C)C)NC(=O)[C@H](CC(C)C)NC(=O)OCc1ccccc1
Outline: as §1

pinometostat = compound: CC(C)N(C[C@H]1O[C@@H](n2cnc3c(N)ncnc32)[C@H](O)[C@@H]1O)[C@H]1C[C@@H](CCc2nc3cc(C(C)(C)C)ccc3[nH]2)C1 [pinometostat]
Outline: as §1

[5] = compound: CC1=C(C2=C(C=C1)C(=O)C3=CC=CC=C3N2CCCN)C
Outline: as §1

[6] = compound: CC1=C(C=C(C=C1)NC(=O)C2=CC(=CC=C2)C(C)(C)C#N)NC3=CC4=C(C=C3)N=CN(C4=O)C
Outline: as §1

[7] = compound: CC1=C(C=C(C=C1)NC(=O)C2=CC(=CC=C2)N(C)C)NC(=O)C3=CC=C(C=C3)O
Outline: as §1

[8] = compound: CC1=CC=C(C=C1)SC2=C3C=C(SC3=CN=C2)C(=O)N
Outline: as §1

[9] = compound: CC1=NC(=CC=C1)C2=C(N=C(N2)C(C)(C)C)C3=CC4=NC=CN=C4C=C3
Outline: as §1

Nexturastat A = compound: CCCCN(Cc1ccc(C(=O)NO)cc1)C(=O)Nc1ccccc1 [Nexturastat A]
Outline: as §1

vemurafenib = compound: CCCS(=O)(=O)Nc1ccc(F)c(C(=O)c2c[nH]c3ncc(-c4ccc(Cl)cc4)cc23)c1F [vemurafenib]
Outline: as §1

[10] = compound: CCCS(=O)(=O)Nc1ccc(F)c(C(=O)c2c[nH]c3ncc(Cl)cc23)c1F
Outline: as §1

[11] = compound: CCCc1cc(C)[nH]c(=O)c1CNC(=O)c1cc(-c2ccnc(N3CCN(C)CC3)c2)cc2c1cnn2C(C)C
Outline: as §1

givinostat = compound: CCN(CC)Cc1ccc2cc(COC(=O)Nc3ccc(C(=O)NO)cc3)ccc2c1 [givinostat]
Outline: as §1

barasertib = compound: CCN(CCCOc1ccc2c(Nc3cc(CC(=O)Nc4cccc(F)c4)[nH]n3)ncnc2c1)CCOP(=O)(O)O [barasertib]
Outline: as §1

[12] = compound: CC1=C(C(CC(=O)N1)C2=CC=C(C=C2)C(F)(F)F)C(=O)NC3=C(C=C4C(=C3)C=NN4)F
Outline: as §1

Measured: log2 fold change

DOHH (UniProt Q9BU89)
inactive: IRAK-1-4 Inhibitor I 0.127 | ibrutinib 0.137 | [1] 0.103 | ralimetinib 0.004 | [2] 0.244 | [3] 0.045 | [4] -0.106 | pinometostat 0.011 | [5] 0.189 | [6] 0.083 | [7] -0.069 | [8] 0.084 | [9] -0.091 | Nexturastat A -0.144 | vemurafenib 0.001 | [10] -0.059 | [11] -0.063 | givinostat -0.068 | barasertib -0.274

ECD isoform 3 (UniProt O95905)
inactive: IRAK-1-4 Inhibitor I 0.025 | ibrutinib -0.011 | ralimetinib 0.123 | [2] -0.011 | [3] -0.192 | [4] 0.053 | pinometostat 0.105 | [12] -0.017 | [5] 0.062 | [6] -0.015 | [7] -0.061 | [8] 0.021 | [9] -0.029 | Nexturastat A 0.037 | vemurafenib 0 | [10] 0.027 | [11] -0.063 | givinostat 0.058 | barasertib -0.001

E4F1 (UniProt Q66K89)
inactive: IRAK-1-4 Inhibitor I 0.036 | ibrutinib 0.098 | [1] 0.151 | ralimetinib 0.107 | [2] -0.03 | [4] -0.004 | pinometostat -0.208 | [5] -0.033 | [6] 0.086 | [7] 0.142 | [8] -0.213 | [9] -0.047 | Nexturastat A 0.372 | vemurafenib 0 | [10] -0.128 | [11] -0.149 | barasertib -0.181

DNPEP (UniProt C9JBE1)
inactive: IRAK-1-4 Inhibitor I 0.045 | ibrutinib -0.018 | [2] -0.089 | [3] -0.006 | pinometostat 0.086 | [5] 0.199 | [6] -0.218 | [8] -0.004 | [9] -0.104 | Nexturastat A 0.015 | vemurafenib -0.06 | [10] -0.224 | [11] -0.206 | givinostat 0.18 | barasertib 0.105

Copied from the entries so far (2 entries):
ECD isoform 3 (UniProt O95905)
inactive: IRAK-1-4 Inhibitor I 0.025 | ibrutinib -0.011 | ralimetinib 0.123 | [2] -0.011 | [3] -0.192 | [4] 0.053 | pinometostat 0.105 | [12] -0.017 | [5] 0.062 | [6] -0.015 | [7] -0.061 | [8] 0.021 | [9] -0.029 | Nexturastat A 0.037 | vemurafenib 0 | [10] 0.027 | [11] -0.063 | givinostat 0.058 | barasertib -0.001

E4F1 (UniProt Q66K89)
inactive: IRAK-1-4 Inhibitor I 0.036 | ibrutinib 0.098 | [1] 0.151 | ralimetinib 0.107 | [2] -0.03 | [4] -0.004 | pinometostat -0.208 | [5] -0.033 | [6] 0.086 | [7] 0.142 | [8] -0.213 | [9] -0.047 | Nexturastat A 0.372 | vemurafenib 0 | [10] -0.128 | [11] -0.149 | barasertib -0.181

The list continues.

DNAJC25 (UniProt Q9H1X3)
inactive: IRAK-1-4 Inhibitor I 0.127 | ibrutinib 0.066 | [3] -0.71 | pinometostat 0 | [5] 0.205 | [8] -0.088 | [9] 0.143 | [10] 0.073 | givinostat 0.059 | barasertib -0.03

DOCK8 (UniProt Q8NF50)
inactive: IRAK-1-4 Inhibitor I 0.047 | ibrutinib 0.015 | [1] 0.029 | ralimetinib 0.105 | [2] -0.198 | [3] 0.152 | [4] 0.274 | pinometostat 0.059 | [5] -0.121 | [6] -0.094 | [7] -0.051 | [9] -0.086 | Nexturastat A 0.468 | vemurafenib 0.134 | [11] 0.093 | givinostat 0.245 | barasertib 0.055

DNAJC30 (UniProt Q96LL9)
inactive: IRAK-1-4 Inhibitor I -0.089 | [1] 0.006 | [3] -0.108 | pinometostat 0.031 | [9] -0.043 | givinostat -0.05

DOK1 (UniProt Q99704)
inactive: IRAK-1-4 Inhibitor I -0.105 | ibrutinib 0.041 | [1] -0.026 | [2] -0.357 | [3] -0.032 | pinometostat 0.151 | [12] -0.028 | [5] -0.007 | [6] -0.303 | [8] 0.132 | [9] -0.355 | Nexturastat A -0.017 | vemurafenib 0.249 | [10] 0.039 | [11] -0.022 | givinostat -0.05 | barasertib 0.144

DOLPP1 (UniProt Q86YN1)
inactive: IRAK-1-4 Inhibitor I 0.008 | ibrutinib -0.017 | [1] -0.19 | ralimetinib -0.128 | [3] -0.045 | [4] -0.154 | pinometostat -0.056 | [5] 0.036 | [7] 0.012 | [8] -0.094 | [9] 0.026 | vemurafenib -0.057 | [10] -0.042 | [11] -0.018 | givinostat -0.027 | barasertib 0.057

E2F3 (UniProt O00716)
inactive: IRAK-1-4 Inhibitor I -0.005 | ibrutinib 0.103 | ralimetinib 0.011 | [2] -0.05 | [3] -0.161 | [4] 0.134 | pinometostat 0.021 | [12] -0.027 | [5] -0.123 | [6] -0.042 | [7] 0.057 | [9] 0.06 | Nexturastat A 0.102 | vemurafenib -0.009 | [11] 0.019 | givinostat 0.053 | barasertib -0.146

DUSP9 (UniProt Q99956)
inactive: IRAK-1-4 Inhibitor I -0.064 | ralimetinib 0.035 | [2] -0.186 | [3] 0.038 | [4] -0.013 | pinometostat -0.048 | [12] 0.201 | [6] 0.015 | [7] 0.173 | [9] 0.142 | Nexturastat A -0.014 | vemurafenib 0.237 | givinostat -0.125

DNM1L isoform 2 (UniProt O00429)
inactive: IRAK-1-4 Inhibitor I -0.021 | ibrutinib 0.054 | [1] 0.118 | ralimetinib 0.028 | [3] 0.08 | [4] 0.043 | pinometostat -0.019 | [12] 0.018 | [5] 0.066 | [6] -0.131 | [7] 0.017 | [8] 0.09 | [9] -0.007 | vemurafenib -0.002 | [10] -0.105 | [11] 0.001 | givinostat -0.031 | barasertib 0.001

DTNBP1 (UniProt Q96EV8)
inactive: IRAK-1-4 Inhibitor I 0.069 | ibrutinib -0.025 | [1] 0.038 | ralimetinib -0.136 | [2] -0.058 | [3] -0.009 | [4] -0.029 | pinometostat -0.044 | [5] 0.092 | [6] -0.078 | [7] 0.006 | [8] 0.001 | [9] 0.055 | Nexturastat A -0.022 | vemurafenib 0.021 | [10] 0.017 | [11] -0.026 | givinostat -0.014 | barasertib 0.01

DNAJC1 (UniProt Q96KC8)
active: [3] -0.462
inactive: IRAK-1-4 Inhibitor I 0.017 | ibrutinib 0.02 | [1] -0.026 | ralimetinib -0.081 | [2] -0.117 | [4] 0.025 | pinometostat -0.037 | [5] 0.019 | [6] 0.027 | [7] 0 | [8] 0.014 | [9] 0.049 | Nexturastat A -0.079 | vemurafenib -0.007 | [10] 0.037 | [11] -0.13 | givinostat -0.013 | barasertib 0.047

DOCK2 (UniProt Q92608)
inactive: ralimetinib 0.394 | [4] 0.334 | [7] -0.264

DUSP14 (UniProt O95147)
inactive: ibrutinib 0.068 | [1] -0.043 | [2] -0.057 | [3] 0.042 | [5] -0.181 | Nexturastat A -0.217 | vemurafenib 0.072 | [11] 0.088 | givinostat 0.273 | barasertib -0.043
